Results deposited as PubChem BioAssay AID1259405 (NCATS, 2018)

Assay: 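Silenced genes that increase secreted GFP made by CHO cells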 (primary screen)
Cell system: Chinese hamster CHO-K1 ovary cells with stable secreted eGFP expression
Reagents: single siRNA against mouse genes, 0.8 pmol siRNA per well (2 µl of 400 nM stock)
Time to read-out: 3 days
Measurement: 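Per-well intracellular GFP measured by laser scanning cytometry, plus viability from ATP luminescence, each relative to plate median of non-targeting control wells, in %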
Direction: GFP, % of control: higher = more GFP per well, higher productivity; viability (ATP), % of control: higher = more viable cells (more ATP)
Active means: 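a knock-down is called active if GFP reaches 120% or more of non-targeting control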
Shown is an unselected part of about 50,000 deposited reagents. Of all reagents, about 4,000 (8%) were called active. 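Mouse siRNA library applied to hamster cells; one well for each siRNA.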 Reagents against one gene are numbered here.

Obox6 (oocyte specific homeobox 6) #1 | GFP, % of control = 22.5; viability (ATP), % of control = 39.4; activity call = inactive
Obox6 (oocyte specific homeobox 6) #2 | GFP, % of control = 87.3; viability (ATP), % of control = 60.3; activity call = inactive
Obox6 (oocyte specific homeobox 6) #3 | GFP, % of control = 18.1; viability (ATP), % of control = 41.2; activity call = inactive
Zfp865 (zinc finger protein 865) #1 | GFP, % of control = 44.8; viability (ATP), % of control = 27.3; activity call = inactive
Zfp865 (zinc finger protein 865) #2 | GFP, % of control = 66.4; viability (ATP), % of control = 66.5; activity call = inactive
Zfp865 (zinc finger protein 865) #3 | GFP, % of control = 70.7; viability (ATP), % of control = 99.9; activity call = inactive
Prl3a1 (prolactin family 3, subfamily a, member 1) #1 | GFP, % of control = 98.6; viability (ATP), % of control = 91.1; activity call = inactive
Prl3a1 (prolactin family 3, subfamily a, member 1) #2 | GFP, % of control = 66.1; viability (ATP), % of control = 76.4; activity call = inactive
Prl3a1 (prolactin family 3, subfamily a, member 1) #3 | GFP, % of control = 74.3; viability (ATP), % of control = 49.1; activity call = inactive
Rex1bd (required for excision 1-B domain containing) #1 | GFP, % of control = 80.4; viability (ATP), % of control = 62.4; activity call = inactive
Rex1bd (required for excision 1-B domain containing) #2 | GFP, % of control = 69.3; viability (ATP), % of control = 50.1; activity call = inactive
Rex1bd (required for excision 1-B domain containing) #3 | GFP, % of control = 79.7; viability (ATP), % of control = 61.9; activity call = inactive
Gprin3 (GPRIN family member 3) #1 | GFP, % of control = 109; viability (ATP), % of control = 61.5; activity call = inactive
Gprin3 (GPRIN family member 3) #2 | GFP, % of control = 78.1; viability (ATP), % of control = 91.8; activity call = inactive
Gprin3 (GPRIN family member 3) #3 | GFP, % of control = 132; viability (ATP), % of control = 124; activity call = active
Cgrrf1 (cell growth regulator with ring finger domain 1) #1 | GFP, % of control = 74.3; viability (ATP), % of control = 85.5; activity call = inactive
Cgrrf1 (cell growth regulator with ring finger domain 1) #2 | GFP, % of control = 99.3; viability (ATP), % of control = 87.4; activity call = inactive
Cgrrf1 (cell growth regulator with ring finger domain 1) #3 | GFP, % of control = 64.7; viability (ATP), % of control = 71; activity call = inactive
Bnipl (BCL2/adenovirus E1B 19kD interacting protein like) #1 | GFP, % of control = 35.7; viability (ATP), % of control = 58; activity call = inactive
Bnipl (BCL2/adenovirus E1B 19kD interacting protein like) #2 | GFP, % of control = 64.1; viability (ATP), % of control = 66; activity call = inactive
Bnipl (BCL2/adenovirus E1B 19kD interacting protein like) #3 | GFP, % of control = 185; viability (ATP), % of control = 148; activity call = active

Continued (6 carried over from the part before).
Cgrrf1 (cell growth regulator with ring finger domain 1) #1 | GFP, % of control = 74.3; viability (ATP), % of control = 85.5; activity call = inactive
Cgrrf1 (cell growth regulator with ring finger domain 1) #2 | GFP, % of control = 99.3; viability (ATP), % of control = 87.4; activity call = inactive
Cgrrf1 (cell growth regulator with ring finger domain 1) #3 | GFP, % of control = 64.7; viability (ATP), % of control = 71; activity call = inactive
Bnipl (BCL2/adenovirus E1B 19kD interacting protein like) #1 | GFP, % of control = 35.7; viability (ATP), % of control = 58; activity call = inactive
Bnipl (BCL2/adenovirus E1B 19kD interacting protein like) #2 | GFP, % of control = 64.1; viability (ATP), % of control = 66; activity call = inactive
Bnipl (BCL2/adenovirus E1B 19kD interacting protein like) #3 | GFP, % of control = 185; viability (ATP), % of control = 148; activity call = active
Capg (capping actin protein, gelsolin like) #1 | GFP, % of control = 84.1; viability (ATP), % of control = 54.1; activity call = inactive
Capg (capping actin protein, gelsolin like) #2 | GFP, % of control = 78.5; viability (ATP), % of control = 68.6; activity call = inactive
Capg (capping actin protein, gelsolin like) #3 | GFP, % of control = 28.3; viability (ATP), % of control = 78.2; activity call = inactive
1700030J22Rik (RIKEN cDNA 1700030J22 gene) #1 | GFP, % of control = 77.8; viability (ATP), % of control = 34.9; activity call = inactive
1700030J22Rik (RIKEN cDNA 1700030J22 gene) #2 | GFP, % of control = 49.8; viability (ATP), % of control = 102; activity call = inactive
1700030J22Rik (RIKEN cDNA 1700030J22 gene) #3 | GFP, % of control = 78.7; viability (ATP), % of control = 94.8; activity call = inactive
Hnrnph2 (heterogeneous nuclear ribonucleoprotein H2) #1 | GFP, % of control = 77.9; viability (ATP), % of control = 59.7; activity call = inactive
Hnrnph2 (heterogeneous nuclear ribonucleoprotein H2) #2 | GFP, % of control = 95.6; viability (ATP), % of control = 54.6; activity call = inactive
Hnrnph2 (heterogeneous nuclear ribonucleoprotein H2) #3 | GFP, % of control = 111; viability (ATP), % of control = 97.6; activity call = inactive
Hebp2 (heme binding protein 2) #1 | GFP, % of control = 71.3; viability (ATP), % of control = 74.7; activity call = inactive
Hebp2 (heme binding protein 2) #2 | GFP, % of control = 34.6; viability (ATP), % of control = 44.2; activity call = inactive
Hebp2 (heme binding protein 2) #3 | GFP, % of control = 76.1; viability (ATP), % of control = 46.4; activity call = inactive
Faf2 (Fas associated factor family member 2) #1 | GFP, % of control = 80.6; viability (ATP), % of control = 79.6; activity call = inactive
Faf2 (Fas associated factor family member 2) #2 | GFP, % of control = 27.4; viability (ATP), % of control = 41.3; activity call = inactive
Faf2 (Fas associated factor family member 2) #3 | GFP, % of control = 55.4; viability (ATP), % of control = 65.3; activity call = inactive
Cd46 (CD46 antigen, complement regulatory protein) #1 | GFP, % of control = 50.1; viability (ATP), % of control = 85.3; activity call = inactive
Cd46 (CD46 antigen, complement regulatory protein) #2 | GFP, % of control = 43; viability (ATP), % of control = 64.9; activity call = inactive
Cd46 (CD46 antigen, complement regulatory protein) #3 | GFP, % of control = 52.3; viability (ATP), % of control = 60.1; activity call = inactive
Khdc4 (KH domain containing 4, pre-mRNA splicing factor) #1 | GFP, % of control = 96.2; viability (ATP), % of control = 66.1; activity call = inactive
Khdc4 (KH domain containing 4, pre-mRNA splicing factor) #2 | GFP, % of control = 119; viability (ATP), % of control = 94; activity call = inactive
Khdc4 (KH domain containing 4, pre-mRNA splicing factor) #3 | GFP, % of control = 72.3; viability (ATP), % of control = 50.9; activity call = inactive
Adprh (ADP-ribosylarginine hydrolase) #1 | GFP, % of control = 106; viability (ATP), % of control = 87.7; activity call = inactive
Adprh (ADP-ribosylarginine hydrolase) #2 | GFP, % of control = 66.4; viability (ATP), % of control = 111; activity call = inactive
Adprh (ADP-ribosylarginine hydrolase) #3 | GFP, % of control = 87; viability (ATP), % of control = 97.3; activity call = inactive
Zfp286 (zinc finger protein 286) #1 | GFP, % of control = 116; viability (ATP), % of control = 123; activity call = inactive
Zfp286 (zinc finger protein 286) #2 | GFP, % of control = 71.3; viability (ATP), % of control = 74.7; activity call = inactive
Zfp286 (zinc finger protein 286) #3 | GFP, % of control = 77.4; viability (ATP), % of control = 78.7; activity call = inactive
Nt5dc3 (5'-nucleotidase domain containing 3) #1 | GFP, % of control = 84.6; viability (ATP), % of control = 94.5; activity call = inactive
Nt5dc3 (5'-nucleotidase domain containing 3) #2 | GFP, % of control = 78.2; viability (ATP), % of control = 79.7; activity call = inactive
Nt5dc3 (5'-nucleotidase domain containing 3) #3 | GFP, % of control = 121; viability (ATP), % of control = 107; activity call = active
Cyp2r1 (cytochrome P450, family 2, subfamily r, polypeptide 1) #1 | GFP, % of control = 84.4; viability (ATP), % of control = 101; activity call = inactive
Cyp2r1 (cytochrome P450, family 2, subfamily r, polypeptide 1) #2 | GFP, % of control = 91; viability (ATP), % of control = 103; activity call = inactive
Cyp2r1 (cytochrome P450, family 2, subfamily r, polypeptide 1) #3 | GFP, % of control = 71.5; viability (ATP), % of control = 43; activity call = inactive
